Measurements from PMC5829831, “Structural Basis for DNA Recognition by the Two-Component Response Regulator RcsB” (mBio, 2018).
Results are given in words; binding and its absence hold for the method and conditions named.

Biological target: RcsB, two-component response regulator of the Rcs phosphorelay system (E. coli) (UniProt P0DMC7)
Test: condition: only in the absence of DNA (RcsB 1 mg/ml); SEC-MALS; RcsB alone, without DNA, with and without 50 mM CPh + 10 mM MgCl2; 1 mg/ml; Superdex 75 10/300 GL; 10 mM Tris-HCl pH 8.3, 150 mM NaCl, 0.5 mM TCEP (10 mM MgCl2 in the runs with CPh); 22°C; both purified

B1: RcsB, two-component response regulator of the Rcs phosphorelay system (natural protein, E. coli, UniProt P0DMC7 1-216, looked up)
chain: MNNMNVIIADDHPIVLFGIRKSLEQIEWVNVVGEFEDSTALINNLPKLDAHVLITDLSMPGDKYGDGITLIKYIKRHFPSLSIIVLTMNNNPAILSAVLDLDIEGIVLKQGAPTDLPKALAALQKGKKFTPESVSRLLEKISAGGYGDKRLSPKESEVLRLFAEGFLVTEIAKKLNRSIKTISSQKKSAMMKLGVENDIALLNYLSSVTLSPADKD
notes: RcsB from Escherichia coli, full length, REC domain, linker and HTH domain; theoretical mass of the monomer 24 kDa; In some samples carbamoyl phosphate (CPh) and MgCl2 were added to phosphorylate D56; also called RcsB* (in the presence of phosphodonor); unphosphorylated RcsB; source: purified RcsB
For B1, the binding was “no binding”.
